Results are given in words; binding and its absence hold for the method and conditions named. For part of these data: Binding seen in cells or lysates may run through a third protein. Some results given as binding are weak or reduced against the parent protein; the word gives no strength.

By UniProt entry, the sequences of proteins in these tests, tags left out. Where a name states a change or a piece, a line headed by the entry shows the natural chain unless it says otherwise. Chains listed by the source or under a name are the forms on record and can include a tag or linker. Residues count along the entry.
EphA2 wild-type intracellular region (residues S570-I976) (P29317, residues 570-976): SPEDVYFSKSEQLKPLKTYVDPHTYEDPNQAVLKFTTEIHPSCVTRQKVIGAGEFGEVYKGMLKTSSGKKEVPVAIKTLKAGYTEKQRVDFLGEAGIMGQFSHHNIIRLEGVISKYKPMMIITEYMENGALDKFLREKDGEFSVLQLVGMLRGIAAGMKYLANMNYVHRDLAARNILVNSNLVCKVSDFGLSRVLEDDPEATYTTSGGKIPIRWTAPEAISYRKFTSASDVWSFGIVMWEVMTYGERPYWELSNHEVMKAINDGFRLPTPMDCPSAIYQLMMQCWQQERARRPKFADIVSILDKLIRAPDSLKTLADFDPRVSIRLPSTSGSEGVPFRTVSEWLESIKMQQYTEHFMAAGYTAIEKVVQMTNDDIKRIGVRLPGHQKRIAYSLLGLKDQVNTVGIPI
full-length EphA2 5A (S892A/S897A/T898A/S899A/S901A) labeled at the C-terminus with mTurquoise or EYFP (P29317, form named): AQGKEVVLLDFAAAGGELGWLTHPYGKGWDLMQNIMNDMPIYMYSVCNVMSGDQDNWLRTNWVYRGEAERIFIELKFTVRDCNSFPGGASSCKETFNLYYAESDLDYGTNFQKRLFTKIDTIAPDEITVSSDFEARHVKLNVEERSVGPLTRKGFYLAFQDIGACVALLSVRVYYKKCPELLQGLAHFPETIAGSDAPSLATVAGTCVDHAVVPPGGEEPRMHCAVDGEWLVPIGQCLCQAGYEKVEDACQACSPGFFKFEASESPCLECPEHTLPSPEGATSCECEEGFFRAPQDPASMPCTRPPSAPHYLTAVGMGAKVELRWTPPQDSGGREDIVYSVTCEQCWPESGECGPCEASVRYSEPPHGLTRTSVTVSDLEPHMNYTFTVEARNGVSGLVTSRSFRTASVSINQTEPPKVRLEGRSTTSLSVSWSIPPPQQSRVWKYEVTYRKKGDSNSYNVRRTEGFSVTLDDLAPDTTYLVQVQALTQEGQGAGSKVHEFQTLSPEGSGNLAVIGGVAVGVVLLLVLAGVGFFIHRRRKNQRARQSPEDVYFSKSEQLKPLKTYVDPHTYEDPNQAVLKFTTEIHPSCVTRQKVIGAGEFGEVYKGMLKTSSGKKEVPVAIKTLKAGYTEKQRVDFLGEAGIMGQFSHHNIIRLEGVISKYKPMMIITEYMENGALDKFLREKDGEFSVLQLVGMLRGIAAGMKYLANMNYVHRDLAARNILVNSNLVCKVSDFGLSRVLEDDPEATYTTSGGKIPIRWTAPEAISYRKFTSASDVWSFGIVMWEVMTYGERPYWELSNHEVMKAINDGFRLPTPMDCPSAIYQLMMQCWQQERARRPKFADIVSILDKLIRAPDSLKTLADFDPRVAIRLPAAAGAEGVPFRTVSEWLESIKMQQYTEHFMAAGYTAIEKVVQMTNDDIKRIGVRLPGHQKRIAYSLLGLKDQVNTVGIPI
full-length EphA2 3E (T898E/S899E/S901E) labeled at the C-terminus with mTurquoise or EYFP (P29317, form named): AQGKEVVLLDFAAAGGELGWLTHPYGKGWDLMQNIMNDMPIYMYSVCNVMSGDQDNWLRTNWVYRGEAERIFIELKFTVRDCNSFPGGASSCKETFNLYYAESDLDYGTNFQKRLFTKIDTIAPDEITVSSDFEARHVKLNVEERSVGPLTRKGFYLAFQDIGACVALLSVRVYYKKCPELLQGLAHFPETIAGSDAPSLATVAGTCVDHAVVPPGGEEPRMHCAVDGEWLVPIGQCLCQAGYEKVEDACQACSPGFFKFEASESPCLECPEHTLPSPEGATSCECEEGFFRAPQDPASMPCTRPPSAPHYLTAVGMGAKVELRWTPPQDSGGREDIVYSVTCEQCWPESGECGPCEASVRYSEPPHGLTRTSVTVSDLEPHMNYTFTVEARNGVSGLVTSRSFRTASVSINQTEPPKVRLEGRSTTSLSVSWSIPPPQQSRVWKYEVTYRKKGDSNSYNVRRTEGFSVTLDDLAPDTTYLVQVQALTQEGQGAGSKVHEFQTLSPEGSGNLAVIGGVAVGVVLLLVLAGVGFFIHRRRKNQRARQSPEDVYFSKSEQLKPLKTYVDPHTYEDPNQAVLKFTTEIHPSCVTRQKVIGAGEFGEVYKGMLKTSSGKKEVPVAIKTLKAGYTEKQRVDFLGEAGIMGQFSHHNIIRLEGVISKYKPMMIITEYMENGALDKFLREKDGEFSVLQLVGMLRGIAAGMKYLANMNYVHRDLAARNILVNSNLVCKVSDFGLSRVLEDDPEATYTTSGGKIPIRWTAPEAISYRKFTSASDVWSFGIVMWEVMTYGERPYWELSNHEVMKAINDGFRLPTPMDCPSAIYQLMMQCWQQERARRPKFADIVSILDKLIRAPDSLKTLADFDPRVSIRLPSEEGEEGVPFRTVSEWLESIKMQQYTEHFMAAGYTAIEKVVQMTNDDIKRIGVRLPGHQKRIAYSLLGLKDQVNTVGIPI
full-length EphA2 S897A labeled at the C-terminus with mTurquoise or EYFP (P29317, form named): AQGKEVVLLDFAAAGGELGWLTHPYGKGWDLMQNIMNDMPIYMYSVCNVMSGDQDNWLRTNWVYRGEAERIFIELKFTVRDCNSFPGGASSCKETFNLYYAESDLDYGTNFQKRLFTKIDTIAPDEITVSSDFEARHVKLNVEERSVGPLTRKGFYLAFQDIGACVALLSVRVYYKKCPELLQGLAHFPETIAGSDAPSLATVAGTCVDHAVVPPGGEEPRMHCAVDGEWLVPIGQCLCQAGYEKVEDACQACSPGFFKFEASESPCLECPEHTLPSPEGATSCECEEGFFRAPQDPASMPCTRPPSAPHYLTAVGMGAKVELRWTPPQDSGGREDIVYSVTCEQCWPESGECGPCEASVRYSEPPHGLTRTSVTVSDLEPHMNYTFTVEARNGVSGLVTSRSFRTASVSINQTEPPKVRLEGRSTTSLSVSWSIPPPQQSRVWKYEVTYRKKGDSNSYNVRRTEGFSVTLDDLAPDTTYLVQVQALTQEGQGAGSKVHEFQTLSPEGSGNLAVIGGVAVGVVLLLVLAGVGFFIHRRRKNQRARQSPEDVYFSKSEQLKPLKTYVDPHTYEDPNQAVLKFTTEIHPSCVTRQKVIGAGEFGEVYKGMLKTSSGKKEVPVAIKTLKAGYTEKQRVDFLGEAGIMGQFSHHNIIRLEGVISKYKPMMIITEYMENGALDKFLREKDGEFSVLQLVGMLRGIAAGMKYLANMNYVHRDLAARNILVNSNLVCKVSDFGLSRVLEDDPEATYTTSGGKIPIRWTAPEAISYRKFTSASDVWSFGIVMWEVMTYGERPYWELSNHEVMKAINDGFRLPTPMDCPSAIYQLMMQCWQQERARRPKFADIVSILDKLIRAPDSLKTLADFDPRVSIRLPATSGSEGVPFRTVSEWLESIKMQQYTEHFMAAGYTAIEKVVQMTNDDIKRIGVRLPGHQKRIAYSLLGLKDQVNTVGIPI
full-length EphA2 S892A labeled at the C-terminus with mTurquoise or EYFP (P29317, form named): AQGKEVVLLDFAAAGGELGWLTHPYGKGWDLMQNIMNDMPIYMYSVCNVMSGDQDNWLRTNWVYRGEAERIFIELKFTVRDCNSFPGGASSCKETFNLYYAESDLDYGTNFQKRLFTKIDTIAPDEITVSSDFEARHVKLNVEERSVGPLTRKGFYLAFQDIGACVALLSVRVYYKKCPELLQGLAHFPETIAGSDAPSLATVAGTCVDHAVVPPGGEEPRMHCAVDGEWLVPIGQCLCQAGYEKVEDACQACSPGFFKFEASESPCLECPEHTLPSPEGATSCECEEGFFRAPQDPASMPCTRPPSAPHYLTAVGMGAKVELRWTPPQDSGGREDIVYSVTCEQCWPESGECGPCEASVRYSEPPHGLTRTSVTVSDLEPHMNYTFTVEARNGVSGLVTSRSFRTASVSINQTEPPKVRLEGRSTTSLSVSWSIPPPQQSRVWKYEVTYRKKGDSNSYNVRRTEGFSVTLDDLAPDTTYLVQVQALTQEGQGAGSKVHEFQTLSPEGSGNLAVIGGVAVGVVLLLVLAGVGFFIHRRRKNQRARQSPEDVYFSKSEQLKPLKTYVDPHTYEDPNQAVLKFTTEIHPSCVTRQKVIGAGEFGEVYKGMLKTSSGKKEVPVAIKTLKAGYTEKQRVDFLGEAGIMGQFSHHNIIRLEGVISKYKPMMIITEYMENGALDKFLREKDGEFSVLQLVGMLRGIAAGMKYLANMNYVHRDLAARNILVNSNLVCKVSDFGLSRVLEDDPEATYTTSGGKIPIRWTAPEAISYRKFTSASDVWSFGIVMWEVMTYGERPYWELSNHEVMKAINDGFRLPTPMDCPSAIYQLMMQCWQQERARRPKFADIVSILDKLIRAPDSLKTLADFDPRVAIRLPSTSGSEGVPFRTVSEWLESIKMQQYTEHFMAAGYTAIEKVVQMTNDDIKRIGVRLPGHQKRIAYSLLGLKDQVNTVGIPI
full-length EphA2 ASAAA (S892A/T898A/S899A/S901A) labeled at the C-terminus with mTurquoise or EYFP (P29317, form named): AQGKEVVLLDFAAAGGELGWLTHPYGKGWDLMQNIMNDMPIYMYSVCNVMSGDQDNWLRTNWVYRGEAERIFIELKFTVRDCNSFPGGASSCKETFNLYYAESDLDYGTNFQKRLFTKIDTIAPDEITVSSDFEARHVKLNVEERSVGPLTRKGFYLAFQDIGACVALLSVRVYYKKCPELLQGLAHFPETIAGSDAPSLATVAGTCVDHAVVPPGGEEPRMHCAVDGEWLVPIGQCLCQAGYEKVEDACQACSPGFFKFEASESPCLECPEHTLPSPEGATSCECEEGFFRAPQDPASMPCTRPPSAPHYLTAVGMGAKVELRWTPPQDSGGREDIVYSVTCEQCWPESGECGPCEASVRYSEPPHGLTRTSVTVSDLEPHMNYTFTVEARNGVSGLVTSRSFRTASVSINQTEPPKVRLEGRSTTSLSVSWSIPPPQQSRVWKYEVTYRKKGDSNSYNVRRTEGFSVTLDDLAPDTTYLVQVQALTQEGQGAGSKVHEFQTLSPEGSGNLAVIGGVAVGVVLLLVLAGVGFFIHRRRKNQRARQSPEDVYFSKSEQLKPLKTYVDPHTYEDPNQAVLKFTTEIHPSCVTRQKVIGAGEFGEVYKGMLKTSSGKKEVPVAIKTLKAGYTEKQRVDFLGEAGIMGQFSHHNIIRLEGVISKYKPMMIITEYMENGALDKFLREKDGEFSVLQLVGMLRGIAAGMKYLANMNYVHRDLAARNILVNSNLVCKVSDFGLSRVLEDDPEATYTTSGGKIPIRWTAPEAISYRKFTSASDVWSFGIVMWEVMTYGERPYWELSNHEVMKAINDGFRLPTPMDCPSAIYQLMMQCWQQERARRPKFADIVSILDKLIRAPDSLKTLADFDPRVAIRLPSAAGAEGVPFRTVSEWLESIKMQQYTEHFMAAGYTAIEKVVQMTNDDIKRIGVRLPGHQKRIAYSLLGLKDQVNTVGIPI
full-length EphA2 5E (S892E/S897E/T898E/S899E/S901E) labeled at the C-terminus with mTurquoise or EYFP (P29317, form named): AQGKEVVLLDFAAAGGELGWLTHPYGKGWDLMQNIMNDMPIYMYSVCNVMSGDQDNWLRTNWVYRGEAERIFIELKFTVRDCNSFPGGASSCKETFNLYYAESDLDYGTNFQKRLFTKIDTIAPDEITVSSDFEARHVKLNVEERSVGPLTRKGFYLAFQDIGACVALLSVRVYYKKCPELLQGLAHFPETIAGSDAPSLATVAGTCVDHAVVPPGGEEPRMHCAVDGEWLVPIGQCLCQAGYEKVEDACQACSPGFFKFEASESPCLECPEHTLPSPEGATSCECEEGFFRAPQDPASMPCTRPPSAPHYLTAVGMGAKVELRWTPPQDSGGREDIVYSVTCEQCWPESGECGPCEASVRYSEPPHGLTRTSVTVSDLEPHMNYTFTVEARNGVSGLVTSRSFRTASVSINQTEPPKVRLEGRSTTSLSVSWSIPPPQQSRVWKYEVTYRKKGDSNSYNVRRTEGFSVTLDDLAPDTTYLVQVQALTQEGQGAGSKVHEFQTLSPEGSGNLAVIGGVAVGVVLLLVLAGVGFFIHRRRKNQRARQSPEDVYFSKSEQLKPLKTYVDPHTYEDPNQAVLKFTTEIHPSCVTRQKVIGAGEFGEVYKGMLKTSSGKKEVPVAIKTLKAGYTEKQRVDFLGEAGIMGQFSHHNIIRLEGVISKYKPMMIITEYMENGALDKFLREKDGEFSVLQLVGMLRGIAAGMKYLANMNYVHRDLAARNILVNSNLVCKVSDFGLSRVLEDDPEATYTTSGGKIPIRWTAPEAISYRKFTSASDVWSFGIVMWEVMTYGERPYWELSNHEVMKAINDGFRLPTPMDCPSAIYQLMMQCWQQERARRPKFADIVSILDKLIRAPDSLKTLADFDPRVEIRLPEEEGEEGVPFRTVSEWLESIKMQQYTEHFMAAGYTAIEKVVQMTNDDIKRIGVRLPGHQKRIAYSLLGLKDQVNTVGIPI

In assay [1] the target is full-length EphA2 5A (S892A/S897A/T898A/S899A/S901A) labeled at the C-terminus with mTurquoise or EYFP (human) (UniProt P29317). Put plainly: FRET or BRET; FSI-FRET between EphA2-mTurquoise and EphA2-EYFP in the plasma membrane of live HEK293T cells, no ligand, serum-starved, hypo-osmotic swelling; dimerization curves fitted to a monomer-dimer model (dimer to monomers). (In BRET a luciferase serves as donor, and the signal depends on an acceptor being close.)

In assay [2] the target is full-length EphA2 3E (T898E/S899E/S901E) labeled at the C-terminus with mTurquoise or EYFP (human) (UniProt P29317). The description is as above.
For assay [3], the target named is full-length EphA2 S897A labeled at the C-terminus with mTurquoise or EYFP (human) (UniProt P29317). Described as above.
The target of assay [4] is EphA2 wild-type intracellular region (residues S570-I976) (human) (UniProt P29317). Briefly: SEC-MALS; Superdex 200 increase 10/300 in 20 mM HEPES pH 7.0, 150 mM NaCl; 100 µl at 3 mg/ml injected; both purified. (In general: In gel filtration, larger molecules generally elute earlier.)
In assay [5] the target is full-length EphA2 S892A labeled at the C-terminus with mTurquoise or EYFP (human) (UniProt P29317). Briefly: FRET or BRET; FSI-FRET between EphA2-mTurquoise and EphA2-EYFP in the plasma membrane of live HEK293T cells, no ligand, serum-starved, hypo-osmotic swelling; dimerization curves fitted to a monomer-dimer model (dimer to monomers).
The target in assay [6] is full-length EphA2 ASAAA (S892A/T898A/S899A/S901A) labeled at the C-terminus with mTurquoise or EYFP (human) (UniProt P29317). The assay is described as above.
In assay [7] the target is full-length EphA2 5E (S892E/S897E/T898E/S899E/S901E) labeled at the C-terminus with mTurquoise or EYFP (human) (UniProt P29317). The description is as above.
The target in assay [8] is full-length EphA2 S892E labeled at the C-terminus with mTurquoise or EYFP (human) (UniProt P29317). The description is as above.
Assay [9] addresses full-length EphA2 S897E labeled at the C-terminus with mTurquoise or EYFP (human) (UniProt P29317). Described as above.

Turning to “full-length EphA2 5A (S892A/S897A/T898A/S899A/S901A) labeled at the C-terminus with mTurquoise or EYFP (from UniProt P29317 24-976) (receptor)”, the binding result in assay [1] is on record as “binds”.

With “full-length EphA2 3E (T898E/S899E/S901E) labeled at the C-terminus with mTurquoise or EYFP (from UniProt P29317 24-976) (receptor)”, in [2], the binding entry was “binds”.

Regarding “full-length EphA2 S897A labeled at the C-terminus with mTurquoise or EYFP (from UniProt P29317 24-976) (receptor)”, in assay [3], the binding result is recorded as “binds”.

For “EphA2 wild-type intracellular region (residues S570-I976) (from UniProt P29317 570-976) (domain or fragment)”, the binding result in assay [4] is “no binding (tested: 3 mg/ml)”.

Turning to “full-length EphA2 S892A labeled at the C-terminus with mTurquoise or EYFP (from UniProt P29317 24-976) (receptor)”, the binding entry in [5] was “binds”.

With “full-length EphA2 ASAAA (S892A/T898A/S899A/S901A) labeled at the C-terminus with mTurquoise or EYFP (from UniProt P29317 24-976) (receptor)”, in assay [6], the binding entry is “binds”.

“full-length EphA2 5E (S892E/S897E/T898E/S899E/S901E) labeled at the C-terminus with mTurquoise or EYFP (from UniProt P29317 24-976) (receptor)”: the binding result in assay [7] was “binds”.

For “full-length EphA2 S892E labeled at the C-terminus with mTurquoise or EYFP (from UniProt P29317 24-976) (receptor)”, the binding entry in [8] was “binds”.

In the case of “full-length EphA2 S897E labeled at the C-terminus with mTurquoise or EYFP (from UniProt P29317 24-976) (receptor)”, in assay [9], the binding entry is “binds”.

For the origin of these results see PMC8639986.
